The results in this text go back to PMC5416842, “The ribosome biogenesis factor yUtp23/hUTP23 coordinates key interactions in the yeast and human pre-40S particle and hUTP23 contains an essential PIN domain” (Nucleic Acids Research, 2017).

These are yes or no findings as the source states them, for the method shown. Binding seen in cells or lysates may run through a third protein. Some results given as binding are weak or reduced against the parent protein; the word gives no strength. Where a sequence is shown, tags or fusion partners need not be part of it.

One test deals with T1, GST-tagged yeast yUtp23 (S. cerevisiae, UniProt Q12339 1-254).
T1 construct: yUtp23, S. cerevisiae; open reading frame amplified from yeast genomic DNA; also called GST-yUtp23
T1 sequence (looked up): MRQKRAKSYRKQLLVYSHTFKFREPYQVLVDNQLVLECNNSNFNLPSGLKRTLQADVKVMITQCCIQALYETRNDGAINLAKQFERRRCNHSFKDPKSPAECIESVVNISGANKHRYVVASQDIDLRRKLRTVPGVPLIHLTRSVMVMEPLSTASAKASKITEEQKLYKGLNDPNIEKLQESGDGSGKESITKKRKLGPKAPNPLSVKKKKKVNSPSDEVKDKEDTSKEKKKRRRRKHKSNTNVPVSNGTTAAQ
Kind of test: pull-down; GST-tagged yUtp23 or hUTP23 immobilised on glutathione sepharose (pre-blocked with BSA), incubated with [35S] in vitro translates for 1 h at 4°C in Buffer NB (20 mM Tris/HCl pH 7.6, 150 mM NaCl, 8.7% glycerol, 0.1% Tween20); five washes; SDS-PAGE, PhosphorImager; only the target purified.

Another test deals with T2, GST-tagged human hUTP23 (human, UniProt Q9BRU9 1-249).
T2 construct: hUTP23, human; open reading frame amplified from human cDNA; also called GST-hUTP23
T2 sequence (looked up): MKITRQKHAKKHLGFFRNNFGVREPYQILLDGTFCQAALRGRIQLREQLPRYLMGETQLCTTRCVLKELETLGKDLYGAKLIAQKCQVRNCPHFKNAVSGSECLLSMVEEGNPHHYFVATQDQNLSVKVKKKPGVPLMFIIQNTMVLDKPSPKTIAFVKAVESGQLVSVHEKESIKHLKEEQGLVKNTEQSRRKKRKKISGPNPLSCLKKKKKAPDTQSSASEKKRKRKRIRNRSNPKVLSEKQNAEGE
Described as above.

B1: yNhp2, in vitro translated with [35S] methionine (protein, UniProt P32495 1-156)
chain: MGKDNKEHKESKESKTVDNYEARMPAVLPFAKPLASKKLNKKVLKTVKKASKAKNVKRGVKEVVKALRKGEKGLVVIAGDISPADVISHIPVLCEDHSVPYIFIPSKQDLGAAGATKRPTSVVFIVPGSNKKKDGKNKEEEYKESFNEVVKEVQAL
modifications: [35S] methionine label
Consider B1, for which, in the test with GST-tagged yeast yUtp23, the binding entry was “binds”.

B2: yUtp23, in vitro translated with [35S] methionine (protein, UniProt Q12339 1-254)
chain: MRQKRAKSYRKQLLVYSHTFKFREPYQVLVDNQLVLECNNSNFNLPSGLKRTLQADVKVMITQCCIQALYETRNDGAINLAKQFERRRCNHSFKDPKSPAECIESVVNISGANKHRYVVASQDIDLRRKLRTVPGVPLIHLTRSVMVMEPLSTASAKASKITEEQKLYKGLNDPNIEKLQESGDGSGKESITKKRKLGPKAPNPLSVKKKKKVNSPSDEVKDKEDTSKEKKKRRRRKHKSNTNVPVSNGTTAAQ
modifications: [35S] methionine label
Turning to B2, the binding entry with GST-tagged yeast yUtp23 is listed as “binds”.

B3: hROK1/DDX52, in vitro translated with [35S] methionine (protein, UniProt Q9Y2R4 1-599)
chain: MDVHDLFRRLGAGAKFDTRRFSADAARFQIGKRKYDFDSSEVLQGLDFFGNKKSVPGVCGASQTHQKPQNGEKKEESLTERKREQSKKKRKTMTSEIASQEEGATIQWMSSVEAKIEDKKVQRESKLTSGKLENLRKEKINFLRNKHKIHVQGTDLPDPIATFQQLDQEYKINSRLLQNILDAGFQMPTPIQMQAIPVMLHGRELLASAPTGSGKTLAFSIPILMQLKQPANKGFRALIISPTRELASQIHRELIKISEGTGFRIHMIHKAAVAAKKFGPKSSKKFDILVTTPNRLIYLLKQDPPGIDLASVEWLVVDESDKLFEDGKTGFRDQLASIFLACTSHKVRRAMFSATFAYDVEQWCKLNLDNVISVSIGARNSAVETVEQELLFVGSETGKLLAVRELVKKGFNPPVLVFVQSIERAKELFHELIYEGINVDVIHAERTQQQRDNTVHSFRAGKIWVLICTALLARGIDFKGVNLVINYDFPTSSVEYIHRIGRTGRAGNKGKAITFFTEDDKPLLRSVANVIQQAGCPVPEYIKGFQKLLSKQKKKMIKKPLERESISTTPKCFLEKAKDKQKKVTGQNSKKKVALEDKS
modifications: [35S] methionine label
Take B3: the binding result with GST-tagged human hUTP23 is “binds”.

B4: yRok1, in vitro translated with [35S] methionine (protein, UniProt P45818 1-564)
chain: MDIFRVLTRGASVKKESGPKAKAADYSVINGNDENHKEDNNESQIVKELDFFRNKRIISKVEDDREKTTENDSPNKEEKSGNDDGLIKPVITNTVEASALRKSYKGNVSGIDIPLPIGSFEDLISRFSFDKRLLNNLIENGFTEPTPIQCECIPVALNNRDVLACGPTGSGKTLAFLIPLVQQIIDDKQTAGLKGLIISPTKELANQIFIECFKLSYKIFLEKKRPLQVALLSKSLGAKLKNKVVSDKKYDIIISTPLRLIDVVKNEALDLSKVKHLIFDEADKLFDKTFVEQSDDILSACREPSLRKAMFSATIPSNVEEIAQSIMMDPVRVIIGHKEAANTNIEQKLIFCGNEEGKLIAIRQLVQEGEFKPPIIIFLESITRAKALYHELMYDRINVDVIHAERTALQRDRIIERFKTGELWCLICTDVLARGIDFKGVNLVINYDVPGSSQAYVHRIGRTGRGGRSGKAITFYTKQDSVAIKPIINVMKQSGCEVSEWMDKMAKMTRKEKESIKNGKAHKERKQITTVPKMDKAKRRRQQEMIAASKRRKNEELSKKHFSK
modifications: [35S] methionine label
Take B4: the binding entry in the test with GST-tagged yeast yUtp23 is “binds”.

B5: yKri1, in vitro translated with [35S] methionine (protein, UniProt P42846 1-591)
chain: MPRKKSAAKRAREQAKKEAAVPATDTATIKTSETSATTVKPAIEASKSYVPSEDEEEDEEEEEEEDDYGELITDEVENGINQVLDAIKNNKTDKLLDPKVKFFEDPESAAAKLANREGKHKPIYLKDYHRMNILSGDALKEDDEEYEHATVDGKQSFVSQQREEKTQLLNEIKSAFSDEENEESSGDEDDGFLKKKEPSTKKEGKNLPDPTVNEENFLEEFVNQQAWIPKKGDKVISLDLNNNEEDDEEFEDAAEKFENAYNFRYEDPNAAEIISYARSQATLRRSDDSSRRRKREEKRKIKEQIKAEKETALQKKKTKKLNKLTDILEQLTKEYGAEINADMVKKITDTLLKNDFKEEEWDNVVAELFNEEFYQQEGKPTWNEDDEIMGDFYADADGDDQTEEGEVEKEQKEEDEEEGPKRKKSKKEEKLQKKKEKRKVNELVENALEQNKLALIEEVEKEEEERKSRSRTKEEQDLKFRYREVSPESFGLTAREIFAADDTDLNEFIGLKKFAPYRSKELRAKDKRKVMKARRLREWRKKTFKNENGLAPVEAEAGEKDEDTILIPVEKASKSKHKRGHSHKHKGHQKK
modifications: [35S] methionine label
As for B5, the binding result in the test with GST-tagged yeast yUtp23 was “binds”.
